# Key:
# tendon [1] = test: Tendon stiffness / localized elongation on MTS servohydraulic testing machine with DVRT; settings: under a 50 Newton load; tendon cross-linked with EDC; gage length approx. 30 mm
# tendon [2] = test: Single suture loop failure (gripping strength) in whole EDC-treated tendon; settings: whole tendon EDC cross-linked; distracted at 20 mm/min until pullout
# canine flexor tendons = test: Single suture loop failure in locally reinforced eyelets (suture pullout on MTS machine); settings: eyelet reinforced by local injection via 22-gauge needle; 4/0 nylon single loop; distracted at 20 mm/min
compound,measurement,setting,value
CCN=C=NCCCN(C)C [EDC],localized tendon elongation within the DVRT portion,tendon [1],about 0.5 mm
same,failure mode of single suture loop,tendon [2],suture breakage at the peak load
same,average maximum force (single suture loop failure),canine flexor tendons,11.5±2.4 Newtons

# — patent publication US20030093119A1, “Eyelet reinforcement at the tissue-suture interface” (priority 2001, published 2003)
